Experimental data published in PubChem BioAssay AID248 (DTP/NCI, 2004).
The list is a part of this screen's results and no random one: it is rich in T/C values a quarter to a half above the control, in often repeated tests (any T/C) and in doses without a T/C. Other doses and runs of a compound stand elsewhere. T/C gives the treated animals as a percentage of the vehicle group. Some entries give survivors of the animals treated and no T/C: the source files T/C as zero there, which appears to mark a toxic dose or a test without result, not a measured value. Some survivor counts are full or nearly so, which does not show that the dose was tolerated: survival well below the control is almost never listed, so the zero probably covers shortened survival too. Survivors were counted at the toxicity check, usually on the fifth day, unless a day is given; later deaths do not show. Schedules are NCI's codes, read here as Q, the interval in days (D) or hours (H), X, the number of doses. Some schedules carry Z or #; the key to these is not given. Some entries were tested several times; the results are listed from low to high. For survival time, the PubChem record calls one and a half times the control and up active, and a quarter to a half above the control has no call in these data; cut-offs in other NCI protocols can differ.

System: L1210 leukemia ip in BDF1 mice, survival T/C
Assay: NCI In Vivo Anticancer Drug Screen. Data for tumor model L1210 Leukemia (intraperitoneal) in B6D2F1 (BDF1) mice
Details: T/C endpoint: mean survival time, higher T/C = longer survival
[1] = dose: 150.0 mg/kg/injection, schedule: Q01DX001 (ip), vehicle: saline
[2] = dose: 300.0 mg/kg/injection, schedule: Q01DX001 (ip), vehicle: saline
[3] = dose: 200.0 mg/kg/injection, schedule: Q04DX003 (ip), vehicle: saline with Tween-80
[4] = dose: 400.0 mg/kg/injection, schedule: Q04DX003 (ip), vehicle: saline
[5] = dose: 400.0 mg/kg/injection, schedule: Q04DX002 (ip), vehicle: Klucel (hydroxypropylcellulose) (HPC)
[6] = dose: 400.0 mg/kg/injection, schedule: Q01DX009 (ip), vehicle: saline with Tween-80
[7] = dose: 400.0 mg/kg/injection, schedule: Q01DX001 (ip), vehicle: saline with Tween-80
[8] = dose: 200.0 mg/kg/injection, schedule: Q01DX009 (ip), vehicle: saline with Tween-80
[9] = dose: 400.0 mg/kg/injection, schedule: Q04DX003 (ip), vehicle: saline with Tween-80

In the case of `O=C(Nc1ccc([N+](=O)[O-])cc1Cl)Oc1ccc2ccccc2c1`, the survivor count (dose: 400.0 mg/kg/injection, schedule: Q01DX009 (ip), vehicle: Klucel (hydroxypropylcellulose) (HPC)) is reported as 4 of 6.
For `O=C(CBr)NC(Cc1ccccc1)C(=O)O` (stereo not drawn), the survivor count [1] was 1 of 6 and the survivor count [2] was 3 of 6.
In the case of `OCCNc1ccccc1`, the survivor count (dose: 400.0 mg/kg/injection, schedule: Q01DX001 (ip), vehicle: saline) is reported as 1 of 6.
In the case of `Clc1ccc(N/N=C(\Oc2ccccc2)c2ccccc2)cc1`, the survivor count [3] is reported as 4 of 4.
With `CCCCNC(C)C1(O)Cc2c(O)c3c(c(O)c2C(OC2CC(N)C(O)C(C)O2)C1)C(=O)c1c(OC)cccc1C3=O` (stereo not drawn) the T/C (dose: 40.0 mg/kg/injection, schedule: Q01DX009 (ip), vehicle: water) was 128 % of control and the survivor count (dose: 160.0 mg/kg/injection, schedule: Q01DX009 (ip), vehicle: water) was 6 of 6.
In the case of `Nc1ccn(CC(=O)c2ccc(Cl)s2)c(=O)n1`, the survivor count (dose: 400.0 mg/kg/injection, schedule: Q01DX009 (ip), vehicle: water) is reported as 6 of 6.
For `Cc1cc(Nc2ccc(C)c(Cl)c2)nc(N)n1`, the survivor count (dose: 200.0 mg/kg/injection, schedule: Q01DX Z (ip), vehicle: methylcellulose (MC)) was 6 of 6.
For `CCOC(=O)N1C2CC=CCC1C1(c3ccccc3)OC2(c2ccccc2)c2ccccc21`, the survivor count (dose: 200.0 mg/kg/injection, schedule: Q04DX002 (ip), vehicle: DMSO) was 3 of 3 and the survivor count (dose: 400.0 mg/kg/injection, schedule: Q04DX002 (ip), vehicle: DMSO) was 1 of 3.
For `Cn1cnc2ncnn2c1=S`, the survivor count (dose: 100.0 mg/kg/injection, schedule: Q01DX009 (ip), vehicle: saline) was 3 of 6, the survivor count (dose: 200.0 mg/kg/injection, schedule: Q01DX009 (ip), vehicle: saline) was 0 of 6 and the survivor count [4] was 4 of 6.
In the case of `OC(CCl)CNc1ccc(-c2ccccc2)cc1` (stereo not drawn), the survivor count (dose: 50.0 mg/kg/injection, schedule: Q04DX003 (ip), vehicle: Klucel (hydroxypropylcellulose) (HPC)) is reported as 6 of 6.
With `C1CCC2[N-]CC3CCCCC3[N-]CC3CCCCC3[N-]CC3CCCCC3[N-]CC2C1.[Cl][Fe]([Cl])([Cl])[Cl].[Fe+6]` (stereo not drawn) the survivor count (dose: 100.0 mg/kg/injection, schedule: Q04DX002 (ip), vehicle: Klucel (hydroxypropylcellulose) (HPC)) was 1 of 3, the survivor count (dose: 200.0 mg/kg/injection, schedule: Q04DX002 (ip), vehicle: Klucel (hydroxypropylcellulose) (HPC)) was 0 of 3 and the survivor count [5] was 0 of 3.
`O=C(O)c1nc2nc(Cl)c(Cl)nc2[nH]1` was tested, and the survivor count [4] was 2 of 6.
With `Cc1ccc2[nH]c(C)cc(=O)c2c1` the survivor count (dose: 75.0 mg/kg/injection, schedule: Q01DX001 (ip), vehicle: saline) was 0 of 6, the survivor count [1] was 0 of 6 and the survivor count [2] was 0 of 6.
For `Cc1cc(NC(=O)Nc2ccc(F)cc2)no1`, the survivor count (dose: 100.0 mg/kg/injection, schedule: Q04DX002 (ip), vehicle: carboxymethylcellulose (CMC)) was 3 of 3.
With `Brc1ccc(C[N+]23CN4CN(CN(C4)C2)C3)cc1` the survivor count [6] was 0 of 6 and the survivor count (dose: 480.0 mg/kg/injection, schedule: Q01DX015 (ip), vehicle: saline) was 0 of 6.
With `CCC[CH2][Sn]([CH2]C)([CH2]C)[O]C(C)=O` the survivor count (dose: 20.0 mg/kg/injection, schedule: Q01DX001 (ip), vehicle: saline with Tween-80) was 0 of 6, the survivor count (dose: 100.0 mg/kg/injection, schedule: Q01DX001 (ip), vehicle: saline with Tween-80) was 0 of 6 and the survivor count (dose: 200.0 mg/kg/injection, schedule: Q01DX001 (ip), vehicle: saline with Tween-80) was 0 of 6. The survivor count [7] was 0 of 6.
For `CN=C(NC)NN`, the survivor count (dose: 15.0 mg/kg/injection, schedule: Q01DX Z (ip), vehicle: methylcellulose (MC)) was 6 of 6, the T/C (dose: 120.0 mg/kg/injection, schedule: Q01DX Z (ip), vehicle: methylcellulose (MC)) was 145 % of control and the survivor count (dose: 250.0 mg/kg/injection, schedule: Q01DX Z (oral), vehicle: methylcellulose (MC)) was 2 of 6. For the same compound, the survivor count (dose: 500.0 mg/kg/injection, schedule: Q01DX Z (oral), vehicle: methylcellulose (MC)) was 3 of 6, the survivor count (dose: 750.0 mg/kg/injection, schedule: Q01DX Z (oral), vehicle: methylcellulose (MC)) was 3 of 6 and the survivor count (dose: 1500.0 mg/kg/injection, schedule: Q01DX Z (oral), vehicle: methylcellulose (MC)) was 1 of 6.
For `Nc1ccc2sc3ccccc3c2c1`, the survivor count [8] was 3 of 6 and the survivor count [9] was 3 of 6.
In the case of `O=CCc1ccc2c(c1)OCO2`, the survivor count (dose: 100.0 mg/kg/injection, schedule: Q01DX001 (ip), vehicle: carboxymethylcellulose (CMC)) is reported as 4 of 4.
For `[C-]#[N+]C([N+]#[C-])=S(C)C`, the survivor count [4] was 3 of 6.
With `COC(=O)c1ccccc1N1C(=O)C=CC1=O` the survivor count (dose: 100.0 mg/kg/injection, schedule: Q04DX003 (ip), vehicle: saline with Tween-80) was 4 of 6, the survivor count [3] was 4 of 6 and the survivor count [9] was 1 of 6.
For `CN(C)c1ccc(C2=CC3CCCC(C2)N3C)cc1` (stereo not drawn), the survivor count (dose: 50.0 mg/kg/injection, schedule: Q04DX003 (ip), vehicle: saline) was 0 of 6, the survivor count (dose: 100.0 mg/kg/injection, schedule: Q04DX003 (ip), vehicle: saline) was 0 of 6 and the survivor count (dose: 200.0 mg/kg/injection, schedule: Q04DX003 (ip), vehicle: saline) was 0 of 6. For the same compound, the survivor count [4] was 0 of 6.
For `CCC(O)(c1ccccc1)c1cnc(C)n1Cc1ccccc1` (stereo not drawn), the survivor count [7] was 1 of 3 and 2 of 6, the survivor count [5] was 3 of 3 and the survivor count [9] was 3 of 6.
In the case of `C=C(Cl)c1c(C)cc(C)c(CC#N)c1C`, the survivor count (dose: 50.0 mg/kg/injection, schedule: Q01DX009 (ip), vehicle: DMSO) is reported as 3 of 6, the survivor count (dose: 100.0 mg/kg/injection, schedule: Q04DX003 (ip), vehicle: DMSO) is reported as 6 of 6 and the survivor count (dose: 400.0 mg/kg/injection, schedule: Q04DX003 (ip), vehicle: DMSO) is reported as 6 of 6.
For `CC(CC#N)c1ccc[nH]1` (stereo not drawn), the survivor count (dose: 400.0 mg/kg/injection, schedule: Q01DX001 (ip), vehicle: carboxymethylcellulose (CMC)) was 0 of 4.
In the case of `Cc1ccccc1NC(=O)CI`, the survivor count (dose: 75.0 mg/kg/injection, schedule: Q01DX009 (ip), vehicle: Klucel (hydroxypropylcellulose) (HPC)) is reported as 0 of 6, the survivor count (dose: 150.0 mg/kg/injection, schedule: Q01DX009 (ip), vehicle: Klucel (hydroxypropylcellulose) (HPC)) is reported as 0 of 6 and the survivor count (dose: 300.0 mg/kg/injection, schedule: Q01DX009 (ip), vehicle: Klucel (hydroxypropylcellulose) (HPC)) is reported as 0 of 6.
`Nc1ccc(NC(=S)S)cc1` was tested, and the survivor count [2] was 0 of 6.
With `CCCCCCCCCCOP1(=O)C=C(C)CC1` (stereo not drawn) the survivor count [9] was 3 of 6.
In the case of `CCOc1ccccc1C=C(C#N)C#N`, the survivor count (dose: 200.0 mg/kg/injection, schedule: Q04DX002 (ip), vehicle: saline with Tween-80) is reported as 1 of 3 and the survivor count (dose: 400.0 mg/kg/injection, schedule: Q04DX002 (ip), vehicle: saline with Tween-80) is reported as 0 of 3.
In the case of `Cc1c(N)ccc(O)c1C`, the survivor count (dose: 100.0 mg/kg/injection, schedule: Q01DX009 (ip), vehicle: saline with Tween-80) is reported as 4 of 6, the survivor count [8] is reported as 1 of 6 and the survivor count [6] is reported as 0 of 6.
